Patent US12216122B2, “Compositions and methods relating to detection, inhibition, and imaging of indoleamine 2,3-dioxygenase 1 (IDO1)” (Regeneron Pharmaceuticals, Inc., priority 2019, dated 2025)
For at least one compound, name, drawing or mass did not settle the structure. Bridge positions count the residues as written; N and C are the ends. Square brackets hold non-standard residues; d marks the D form. Triazole bridges read from a SMILES are 1,4-linked. Peptide text beside a SMILES is read from it. * marks the point of attachment. X1 = O=C(CSc1nonc1/C(=N/O)Nc1ccc(F)c(Br)c1)*; Lys(N3) = [N-]=[N+]=NCCCC[C@H](N)C(=O)O; Pra = C#CC[C@H](N)C(=O)O; βAla = NCCC(=O)O

Protein sequences, listed by entry. Tags and fused reporters are not part of them.
UniProt P14902, whole entry: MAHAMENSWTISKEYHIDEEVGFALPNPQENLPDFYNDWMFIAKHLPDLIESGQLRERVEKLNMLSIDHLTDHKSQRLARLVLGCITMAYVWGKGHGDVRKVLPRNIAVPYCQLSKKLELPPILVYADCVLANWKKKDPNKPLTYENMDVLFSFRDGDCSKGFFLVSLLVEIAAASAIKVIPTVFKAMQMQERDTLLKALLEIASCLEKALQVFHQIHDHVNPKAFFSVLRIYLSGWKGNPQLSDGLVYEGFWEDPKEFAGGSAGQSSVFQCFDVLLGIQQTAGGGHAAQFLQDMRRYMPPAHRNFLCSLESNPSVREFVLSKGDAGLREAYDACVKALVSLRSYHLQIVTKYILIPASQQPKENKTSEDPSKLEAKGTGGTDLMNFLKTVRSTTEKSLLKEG

Target: T1, recombinant human IDO1 (Homo sapiens, UniProt P14902)
T1 construct: purchased BPS Biosciences 72037
Assay: IDO1 Fluorogenic Inhibitor Screening Assay (enzyme inhibition)
Type: biochemical
Settings: linker composition series
Method: The IDO1 Fluorogenic Inhibitor Screening Assay Kit (72037, BPS Biosciences) was used to measure the enzyme inhibition of human IDO1 in the presence of macrocyclic peptide ligands. IDO1 catalyzes the conversion of the essential amino acid L-tryptophan (L-Trp) to N-formylkynurenine (NFK). In the assay, the test inhibitor and enzyme were added to a sample containing L-Trp substrate. After incubation for 1 h at room temperature, 20 μL Fluorescence Solution was added and incubated at 37° C. for 4 h to produce a fluorescent product. Activity was measured by reading sample fluorescence at λ=510 nm following excitation of the reaction product at λ=400 nm.

## CC(C)[C@H](NC(=O)CCNC(=O)CSc1nonc1/C(=N/O)Nc1ccc(F)c(Br)c1)C(=O)N[C@H](C(=O)N[C@H](C(=O)N[C@H]1Cc2cn(nn2)CCCC[C@@H](C(N)=O)NC(=O)[C@@H](Cc2ccc(O)cc2)NC(=O)[C@@H](C)NC(=O)[C@@H](C(C)C)NC(=O)[C@@H](Cc2ccc(O)cc2)NC(=O)[C@@H](Cc2c[nH]c3ccccc23)NC1=O)C(C)C)C(C)C [Inh-BA-(Val)3-wyvay] ({X1-βAla}-VVV[Pra][dW][dY][dV][dA][dY][Lys(N3)]-NH2; triazole 4-10)
  IC50: 1970 nM
